# Experimental data taken from the supplement of paper PMC12819154, “High-throughput peptide-centric local stability assay extends protein–ligand identification to membrane proteins, tissues and bacteria” (Nature Structural & Molecular Biology, 2025).
# Chains of the proteins cited; added tags and fusions are not shown. Lines headed by an entry give the natural chain unless they say otherwise; changes in a name come on top.
# UniProt Q9NVT9: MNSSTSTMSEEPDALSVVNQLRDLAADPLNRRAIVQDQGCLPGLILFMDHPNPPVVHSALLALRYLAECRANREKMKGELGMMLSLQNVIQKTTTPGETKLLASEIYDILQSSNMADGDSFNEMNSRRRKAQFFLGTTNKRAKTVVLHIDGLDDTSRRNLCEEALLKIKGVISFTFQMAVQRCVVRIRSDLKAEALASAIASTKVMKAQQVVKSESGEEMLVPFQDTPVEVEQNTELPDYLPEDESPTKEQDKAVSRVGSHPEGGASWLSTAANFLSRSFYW
# UniProt Q9NVM4: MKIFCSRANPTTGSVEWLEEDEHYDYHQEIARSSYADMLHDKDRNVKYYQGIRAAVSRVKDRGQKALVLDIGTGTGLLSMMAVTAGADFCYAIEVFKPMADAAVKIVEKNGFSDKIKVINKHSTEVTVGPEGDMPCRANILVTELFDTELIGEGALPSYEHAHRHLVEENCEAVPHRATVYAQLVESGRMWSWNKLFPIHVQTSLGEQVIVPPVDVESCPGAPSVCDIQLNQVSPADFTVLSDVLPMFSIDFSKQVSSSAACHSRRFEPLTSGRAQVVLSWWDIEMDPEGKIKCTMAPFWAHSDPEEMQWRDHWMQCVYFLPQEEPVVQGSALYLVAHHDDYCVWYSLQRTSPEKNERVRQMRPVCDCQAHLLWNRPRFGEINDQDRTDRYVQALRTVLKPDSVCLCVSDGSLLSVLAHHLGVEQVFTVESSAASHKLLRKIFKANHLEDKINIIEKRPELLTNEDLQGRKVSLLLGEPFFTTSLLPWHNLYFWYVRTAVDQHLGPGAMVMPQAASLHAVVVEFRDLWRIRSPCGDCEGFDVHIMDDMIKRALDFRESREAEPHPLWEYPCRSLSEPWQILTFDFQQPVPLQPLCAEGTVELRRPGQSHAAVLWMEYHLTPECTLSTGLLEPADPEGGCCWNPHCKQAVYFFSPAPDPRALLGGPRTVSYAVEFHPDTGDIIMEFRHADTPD
# UniProt Q9NUW8, whole entry: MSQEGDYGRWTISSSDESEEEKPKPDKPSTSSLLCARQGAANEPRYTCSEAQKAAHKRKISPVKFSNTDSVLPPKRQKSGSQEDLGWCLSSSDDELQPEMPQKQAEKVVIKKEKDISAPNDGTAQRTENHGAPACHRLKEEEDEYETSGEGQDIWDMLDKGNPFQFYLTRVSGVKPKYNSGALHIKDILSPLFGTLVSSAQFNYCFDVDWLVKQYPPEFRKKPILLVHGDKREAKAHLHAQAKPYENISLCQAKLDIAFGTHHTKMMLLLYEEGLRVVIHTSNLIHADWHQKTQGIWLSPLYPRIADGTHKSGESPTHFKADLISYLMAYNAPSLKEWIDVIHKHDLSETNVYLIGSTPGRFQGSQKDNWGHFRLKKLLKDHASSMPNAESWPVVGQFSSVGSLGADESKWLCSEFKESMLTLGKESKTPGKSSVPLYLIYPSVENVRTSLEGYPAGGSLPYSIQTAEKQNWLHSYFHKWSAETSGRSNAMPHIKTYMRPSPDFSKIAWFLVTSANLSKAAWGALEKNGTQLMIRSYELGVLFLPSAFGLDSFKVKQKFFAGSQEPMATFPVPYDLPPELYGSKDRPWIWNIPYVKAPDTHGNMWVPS
# UniProt Q9NWF9: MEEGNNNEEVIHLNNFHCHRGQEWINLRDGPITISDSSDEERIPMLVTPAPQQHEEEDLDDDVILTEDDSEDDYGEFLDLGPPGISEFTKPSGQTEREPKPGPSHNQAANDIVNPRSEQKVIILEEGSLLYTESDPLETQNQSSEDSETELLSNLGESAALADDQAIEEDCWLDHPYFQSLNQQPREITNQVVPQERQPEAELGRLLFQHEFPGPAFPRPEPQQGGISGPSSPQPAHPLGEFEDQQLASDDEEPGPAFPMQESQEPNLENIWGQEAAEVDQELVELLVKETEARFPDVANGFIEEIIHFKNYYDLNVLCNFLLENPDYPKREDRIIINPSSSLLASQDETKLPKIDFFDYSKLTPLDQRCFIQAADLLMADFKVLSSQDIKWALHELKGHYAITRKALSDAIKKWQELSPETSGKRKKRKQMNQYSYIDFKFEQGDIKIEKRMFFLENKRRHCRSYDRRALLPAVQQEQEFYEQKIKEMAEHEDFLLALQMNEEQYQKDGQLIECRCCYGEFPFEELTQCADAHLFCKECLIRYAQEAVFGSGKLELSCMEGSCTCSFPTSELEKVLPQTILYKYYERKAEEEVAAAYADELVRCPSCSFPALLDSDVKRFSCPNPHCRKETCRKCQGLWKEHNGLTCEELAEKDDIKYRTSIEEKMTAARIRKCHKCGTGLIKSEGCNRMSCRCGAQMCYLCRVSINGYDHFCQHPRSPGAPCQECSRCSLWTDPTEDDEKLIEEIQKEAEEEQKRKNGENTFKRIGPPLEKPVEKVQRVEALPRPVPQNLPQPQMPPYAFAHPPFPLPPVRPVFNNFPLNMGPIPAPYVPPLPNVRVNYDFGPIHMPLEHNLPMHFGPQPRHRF
# UniProt Q9NRA0: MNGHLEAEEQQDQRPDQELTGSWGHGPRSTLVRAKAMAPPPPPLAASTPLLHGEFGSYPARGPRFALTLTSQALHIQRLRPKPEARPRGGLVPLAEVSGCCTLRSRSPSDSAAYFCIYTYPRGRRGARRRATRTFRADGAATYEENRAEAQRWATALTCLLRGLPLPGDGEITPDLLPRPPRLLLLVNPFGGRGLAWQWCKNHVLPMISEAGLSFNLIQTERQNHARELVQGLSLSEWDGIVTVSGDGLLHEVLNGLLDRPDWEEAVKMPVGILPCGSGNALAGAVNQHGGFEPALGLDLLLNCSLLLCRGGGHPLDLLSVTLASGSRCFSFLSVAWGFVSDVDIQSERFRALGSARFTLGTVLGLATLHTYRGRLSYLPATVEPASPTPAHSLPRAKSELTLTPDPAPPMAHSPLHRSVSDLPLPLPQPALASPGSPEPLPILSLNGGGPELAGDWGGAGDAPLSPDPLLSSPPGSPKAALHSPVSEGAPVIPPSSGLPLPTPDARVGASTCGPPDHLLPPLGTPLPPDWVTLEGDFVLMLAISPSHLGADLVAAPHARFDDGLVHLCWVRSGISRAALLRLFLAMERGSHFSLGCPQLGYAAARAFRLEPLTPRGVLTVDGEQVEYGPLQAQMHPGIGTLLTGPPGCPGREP
# UniProt Q9NP72: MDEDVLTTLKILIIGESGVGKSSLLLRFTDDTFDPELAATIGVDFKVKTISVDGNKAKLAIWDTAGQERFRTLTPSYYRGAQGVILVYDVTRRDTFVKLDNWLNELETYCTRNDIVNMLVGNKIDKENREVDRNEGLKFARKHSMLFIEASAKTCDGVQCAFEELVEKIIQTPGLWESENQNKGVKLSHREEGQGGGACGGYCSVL
# UniProt Q9NVI1: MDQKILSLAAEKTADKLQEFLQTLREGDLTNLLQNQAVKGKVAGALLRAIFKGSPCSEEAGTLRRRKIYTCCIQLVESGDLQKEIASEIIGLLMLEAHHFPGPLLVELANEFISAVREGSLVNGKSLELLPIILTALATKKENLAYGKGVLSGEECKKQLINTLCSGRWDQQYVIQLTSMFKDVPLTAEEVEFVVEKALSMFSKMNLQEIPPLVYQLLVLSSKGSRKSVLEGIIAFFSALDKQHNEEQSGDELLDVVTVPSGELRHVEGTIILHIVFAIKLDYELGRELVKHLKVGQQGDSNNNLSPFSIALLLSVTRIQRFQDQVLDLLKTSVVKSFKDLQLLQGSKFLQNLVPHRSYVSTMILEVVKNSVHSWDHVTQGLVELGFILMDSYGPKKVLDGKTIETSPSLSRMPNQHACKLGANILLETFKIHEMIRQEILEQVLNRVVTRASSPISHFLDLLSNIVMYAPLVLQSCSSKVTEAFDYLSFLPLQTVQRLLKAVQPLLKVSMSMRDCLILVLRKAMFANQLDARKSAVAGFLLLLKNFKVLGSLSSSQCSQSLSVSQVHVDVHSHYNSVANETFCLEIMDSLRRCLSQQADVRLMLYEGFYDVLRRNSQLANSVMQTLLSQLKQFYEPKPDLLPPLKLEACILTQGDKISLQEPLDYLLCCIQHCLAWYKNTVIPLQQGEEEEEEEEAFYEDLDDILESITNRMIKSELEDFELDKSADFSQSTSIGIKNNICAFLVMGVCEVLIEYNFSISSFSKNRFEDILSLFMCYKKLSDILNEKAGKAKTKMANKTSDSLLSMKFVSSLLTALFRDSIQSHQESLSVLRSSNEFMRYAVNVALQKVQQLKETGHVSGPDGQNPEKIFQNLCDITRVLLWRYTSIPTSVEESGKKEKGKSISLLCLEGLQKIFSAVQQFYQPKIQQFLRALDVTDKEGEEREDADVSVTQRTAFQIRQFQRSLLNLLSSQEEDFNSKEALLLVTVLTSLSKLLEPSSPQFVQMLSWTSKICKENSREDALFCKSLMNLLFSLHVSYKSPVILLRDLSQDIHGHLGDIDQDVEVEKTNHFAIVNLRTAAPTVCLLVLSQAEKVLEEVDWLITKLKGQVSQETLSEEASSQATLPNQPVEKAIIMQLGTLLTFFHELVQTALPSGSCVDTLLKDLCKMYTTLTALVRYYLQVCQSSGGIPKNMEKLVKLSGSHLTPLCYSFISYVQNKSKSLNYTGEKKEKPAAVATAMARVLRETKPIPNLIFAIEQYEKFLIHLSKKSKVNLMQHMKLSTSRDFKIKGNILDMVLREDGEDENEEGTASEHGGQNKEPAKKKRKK
# UniProt Q9NQ48: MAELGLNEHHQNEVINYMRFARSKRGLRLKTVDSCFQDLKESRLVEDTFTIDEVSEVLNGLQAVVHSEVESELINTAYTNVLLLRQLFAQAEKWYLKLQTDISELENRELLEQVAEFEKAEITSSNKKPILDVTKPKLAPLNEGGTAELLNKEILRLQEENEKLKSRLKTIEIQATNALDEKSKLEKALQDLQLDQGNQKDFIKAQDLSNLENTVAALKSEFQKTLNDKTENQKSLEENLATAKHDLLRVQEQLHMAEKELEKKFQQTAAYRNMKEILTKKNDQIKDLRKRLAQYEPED
# UniProt Q9NRN9: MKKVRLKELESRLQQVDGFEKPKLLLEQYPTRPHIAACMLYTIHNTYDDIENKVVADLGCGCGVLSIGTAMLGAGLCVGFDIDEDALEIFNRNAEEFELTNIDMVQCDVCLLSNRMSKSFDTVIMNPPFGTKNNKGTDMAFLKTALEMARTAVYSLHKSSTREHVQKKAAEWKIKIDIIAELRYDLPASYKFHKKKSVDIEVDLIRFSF
# UniProt Q9NS37: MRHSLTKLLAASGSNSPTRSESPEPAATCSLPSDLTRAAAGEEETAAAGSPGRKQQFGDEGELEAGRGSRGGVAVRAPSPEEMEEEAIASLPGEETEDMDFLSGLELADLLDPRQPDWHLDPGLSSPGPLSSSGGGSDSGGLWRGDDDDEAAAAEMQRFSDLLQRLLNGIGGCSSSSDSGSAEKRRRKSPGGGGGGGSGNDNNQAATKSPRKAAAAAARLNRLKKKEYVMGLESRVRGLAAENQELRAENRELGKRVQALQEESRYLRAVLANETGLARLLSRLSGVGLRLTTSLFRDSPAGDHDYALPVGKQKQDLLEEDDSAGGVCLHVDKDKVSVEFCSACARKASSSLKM
# The other results are listed elsewhere or left out. Small differences around the control level are noise.
# Compound: Cc1nc(Nc2ncc(C(=O)Nc3c(C)cccc3Cl)s2)cc(N2CCN(CCO)CC2)n1 [dasatinib]
# Assay: log2 fold change of tryptic peptide abundance, ligand vs vehicle (limited proteolysis) (log2 ratio); higher = more trypsin-susceptible (destabilized)
# Conditions: ligand concentration: 5 uM; sample: K562 cleared lysate
row,Target,log2 fold change
1,"ARMC1 (peptide sequence: AKTVVLHIDGLDDTSRR, peptide start residue: 142) (UniProt Q9NVT9)",0.753
2,"PRMT7 (peptide sequence: QVSSSAACHSR, peptide start residue: 255) (UniProt Q9NVM4)",-1.86
3,"TDP1 (peptide sequence: EKDISAPNDGTAQR, peptide start residue: 113) (UniProt Q9NUW8)",-0.0884
4,"RNF216 (peptide sequence: MEEGNNNEEVIHLNNFHCHR, peptide start residue: 1) (UniProt Q9NWF9)",0.537
5,"SPHK2 (peptide sequence: AKSELTLTPDPAPPMAHSPLHR, peptide start residue: 397) (UniProt Q9NRA0)",-0.317
6,"RAB18 (peptide sequence: NDIVNMLVGNK, peptide start residue: 113) (UniProt Q9NP72)",-0.456
7,"FANCI (peptide sequence: GKVAGALLR, peptide start residue: 40) (UniProt Q9NVI1)",-0.154
8,"LZTFL1 (peptide sequence: VQEQLHMAEKELEKK, peptide start residue: 250) (UniProt Q9NQ48)",-0.175
9,"METTL5 (peptide sequence: LQQVDGFEKPK, peptide start residue: 13) (UniProt Q9NRN9)",0.192
10,"UniProt Q9NS37 (peptide sequence: FSDLLQR, peptide start residue: 159)",0.334
